The supplement of paper PMC12819154, “High-throughput peptide-centric local stability assay extends protein–ligand identification to membrane proteins, tissues and bacteria” (Nature Structural & Molecular Biology, 2025)
Some of the results follow. Small differences around the control level are noise.

Amino acid sequences for entries named in this document (tags omitted). A change or cut given only in a name is not applied to a line headed by its entry.
UniProt Q9JM13, whole entry: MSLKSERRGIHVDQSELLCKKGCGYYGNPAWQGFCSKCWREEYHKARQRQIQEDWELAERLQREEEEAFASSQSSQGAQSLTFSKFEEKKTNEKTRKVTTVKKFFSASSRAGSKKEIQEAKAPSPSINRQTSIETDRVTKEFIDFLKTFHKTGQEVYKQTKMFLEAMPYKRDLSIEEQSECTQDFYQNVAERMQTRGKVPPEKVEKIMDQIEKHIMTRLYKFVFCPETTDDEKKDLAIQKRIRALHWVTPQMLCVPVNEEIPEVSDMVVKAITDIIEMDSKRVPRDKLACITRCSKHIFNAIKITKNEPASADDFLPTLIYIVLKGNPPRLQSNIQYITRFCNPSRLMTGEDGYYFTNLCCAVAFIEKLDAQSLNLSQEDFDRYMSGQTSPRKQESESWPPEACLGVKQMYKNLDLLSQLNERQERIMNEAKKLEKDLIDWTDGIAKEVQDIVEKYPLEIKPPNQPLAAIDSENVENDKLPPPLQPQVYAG
UniProt Q9JJF9: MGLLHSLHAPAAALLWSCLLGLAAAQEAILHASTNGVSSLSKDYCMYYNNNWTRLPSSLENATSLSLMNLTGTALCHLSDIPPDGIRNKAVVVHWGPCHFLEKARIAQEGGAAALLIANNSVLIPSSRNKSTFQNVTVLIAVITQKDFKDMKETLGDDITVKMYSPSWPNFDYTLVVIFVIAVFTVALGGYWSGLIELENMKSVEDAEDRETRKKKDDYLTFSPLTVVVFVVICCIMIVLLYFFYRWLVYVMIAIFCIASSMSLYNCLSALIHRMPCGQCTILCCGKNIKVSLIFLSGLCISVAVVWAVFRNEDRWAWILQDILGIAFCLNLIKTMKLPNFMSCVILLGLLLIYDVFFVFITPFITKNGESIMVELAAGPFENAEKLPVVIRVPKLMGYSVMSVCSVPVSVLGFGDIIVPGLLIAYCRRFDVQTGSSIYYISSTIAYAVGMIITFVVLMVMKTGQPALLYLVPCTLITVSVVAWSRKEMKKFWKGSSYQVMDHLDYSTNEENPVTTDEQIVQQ
UniProt Q9JL56: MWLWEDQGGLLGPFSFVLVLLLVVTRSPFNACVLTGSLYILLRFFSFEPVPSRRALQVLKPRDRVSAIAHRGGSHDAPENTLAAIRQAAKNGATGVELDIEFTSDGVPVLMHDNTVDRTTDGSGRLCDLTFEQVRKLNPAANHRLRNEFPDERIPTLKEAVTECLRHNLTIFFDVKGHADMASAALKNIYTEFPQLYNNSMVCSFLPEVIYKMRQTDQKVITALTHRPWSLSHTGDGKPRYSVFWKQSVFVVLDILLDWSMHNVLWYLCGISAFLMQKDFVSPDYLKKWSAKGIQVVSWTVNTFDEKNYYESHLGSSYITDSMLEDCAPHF
UniProt Q9DCJ9: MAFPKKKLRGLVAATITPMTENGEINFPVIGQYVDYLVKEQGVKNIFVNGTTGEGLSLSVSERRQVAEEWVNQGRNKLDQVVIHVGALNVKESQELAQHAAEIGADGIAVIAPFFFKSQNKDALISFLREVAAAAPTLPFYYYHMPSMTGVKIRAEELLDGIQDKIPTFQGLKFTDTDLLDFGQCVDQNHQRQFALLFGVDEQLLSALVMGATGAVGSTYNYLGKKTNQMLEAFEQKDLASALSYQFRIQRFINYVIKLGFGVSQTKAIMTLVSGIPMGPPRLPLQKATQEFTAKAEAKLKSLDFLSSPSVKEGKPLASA
UniProt Q9JKD3: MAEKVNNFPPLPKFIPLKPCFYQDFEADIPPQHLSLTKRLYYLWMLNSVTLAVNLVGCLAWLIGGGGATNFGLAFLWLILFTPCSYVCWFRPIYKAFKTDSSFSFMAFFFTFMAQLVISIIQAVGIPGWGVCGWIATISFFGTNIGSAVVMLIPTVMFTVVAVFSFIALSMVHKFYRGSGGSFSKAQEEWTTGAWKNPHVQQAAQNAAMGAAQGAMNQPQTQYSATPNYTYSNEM
UniProt Q9JM62: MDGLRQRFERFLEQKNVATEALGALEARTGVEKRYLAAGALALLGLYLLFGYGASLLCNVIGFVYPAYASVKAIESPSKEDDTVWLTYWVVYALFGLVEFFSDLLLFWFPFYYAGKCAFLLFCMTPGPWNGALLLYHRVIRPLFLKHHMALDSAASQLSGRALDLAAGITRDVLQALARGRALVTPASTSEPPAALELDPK
UniProt Q9DCV4: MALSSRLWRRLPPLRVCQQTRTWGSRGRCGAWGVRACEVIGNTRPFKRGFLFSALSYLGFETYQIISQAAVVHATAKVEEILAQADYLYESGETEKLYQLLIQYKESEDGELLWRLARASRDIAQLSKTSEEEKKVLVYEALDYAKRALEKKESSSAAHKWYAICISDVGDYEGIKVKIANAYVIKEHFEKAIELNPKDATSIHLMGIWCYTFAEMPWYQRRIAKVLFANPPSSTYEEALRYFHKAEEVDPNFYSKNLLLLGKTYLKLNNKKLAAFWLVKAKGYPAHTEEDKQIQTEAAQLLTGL
UniProt Q9ERB0: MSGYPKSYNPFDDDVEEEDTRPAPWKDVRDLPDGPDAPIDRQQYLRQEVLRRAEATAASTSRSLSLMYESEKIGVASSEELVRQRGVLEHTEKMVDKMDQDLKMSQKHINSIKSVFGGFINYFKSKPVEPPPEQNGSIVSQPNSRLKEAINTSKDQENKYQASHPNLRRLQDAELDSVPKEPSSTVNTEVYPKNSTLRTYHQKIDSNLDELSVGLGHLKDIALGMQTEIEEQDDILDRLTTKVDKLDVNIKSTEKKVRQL
UniProt Q9JL35: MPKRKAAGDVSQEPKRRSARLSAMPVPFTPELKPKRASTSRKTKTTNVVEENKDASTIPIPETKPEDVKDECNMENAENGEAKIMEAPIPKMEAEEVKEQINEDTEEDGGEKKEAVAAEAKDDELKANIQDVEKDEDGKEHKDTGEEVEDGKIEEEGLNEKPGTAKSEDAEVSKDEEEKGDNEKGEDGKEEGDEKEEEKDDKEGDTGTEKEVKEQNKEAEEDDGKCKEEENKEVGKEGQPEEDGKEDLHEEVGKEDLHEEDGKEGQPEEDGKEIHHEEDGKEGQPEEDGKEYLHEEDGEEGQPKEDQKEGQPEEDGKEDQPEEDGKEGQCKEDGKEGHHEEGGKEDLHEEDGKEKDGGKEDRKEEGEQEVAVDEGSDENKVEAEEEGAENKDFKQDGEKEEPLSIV
UniProt Q9EP96: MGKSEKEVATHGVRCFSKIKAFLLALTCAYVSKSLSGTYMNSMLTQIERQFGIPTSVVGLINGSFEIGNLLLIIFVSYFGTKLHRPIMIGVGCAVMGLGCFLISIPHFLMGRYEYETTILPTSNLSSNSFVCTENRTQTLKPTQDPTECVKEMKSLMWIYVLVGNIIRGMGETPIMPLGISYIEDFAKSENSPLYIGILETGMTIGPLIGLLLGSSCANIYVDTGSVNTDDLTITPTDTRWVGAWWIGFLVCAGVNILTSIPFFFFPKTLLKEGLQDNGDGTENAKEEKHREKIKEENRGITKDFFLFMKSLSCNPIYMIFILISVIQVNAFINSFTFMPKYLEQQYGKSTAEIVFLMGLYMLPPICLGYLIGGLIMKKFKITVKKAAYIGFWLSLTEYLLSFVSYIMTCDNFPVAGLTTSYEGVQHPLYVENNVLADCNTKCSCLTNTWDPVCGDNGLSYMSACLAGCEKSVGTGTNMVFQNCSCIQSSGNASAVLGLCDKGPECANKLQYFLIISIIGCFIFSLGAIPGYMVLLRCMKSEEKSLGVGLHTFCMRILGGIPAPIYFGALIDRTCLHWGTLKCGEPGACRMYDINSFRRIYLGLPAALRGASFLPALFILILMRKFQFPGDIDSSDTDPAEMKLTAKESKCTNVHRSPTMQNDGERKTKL
UniProt Q9DCE9: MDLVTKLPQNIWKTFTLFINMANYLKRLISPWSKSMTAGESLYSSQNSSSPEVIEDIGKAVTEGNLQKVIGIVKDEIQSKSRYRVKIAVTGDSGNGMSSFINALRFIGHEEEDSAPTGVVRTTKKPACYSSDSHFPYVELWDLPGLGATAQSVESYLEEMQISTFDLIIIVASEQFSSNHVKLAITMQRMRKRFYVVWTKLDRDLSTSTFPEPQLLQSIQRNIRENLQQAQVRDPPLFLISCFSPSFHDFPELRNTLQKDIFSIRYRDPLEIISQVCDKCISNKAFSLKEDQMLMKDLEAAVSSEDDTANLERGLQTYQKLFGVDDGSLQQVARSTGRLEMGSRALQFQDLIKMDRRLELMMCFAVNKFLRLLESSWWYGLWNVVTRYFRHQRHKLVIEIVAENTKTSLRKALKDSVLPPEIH
UniProt Q9JKP7: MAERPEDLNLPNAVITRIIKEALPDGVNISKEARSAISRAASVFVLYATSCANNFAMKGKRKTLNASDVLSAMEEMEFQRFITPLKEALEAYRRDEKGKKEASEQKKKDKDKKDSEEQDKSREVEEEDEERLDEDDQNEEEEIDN
UniProt Q9EPJ9: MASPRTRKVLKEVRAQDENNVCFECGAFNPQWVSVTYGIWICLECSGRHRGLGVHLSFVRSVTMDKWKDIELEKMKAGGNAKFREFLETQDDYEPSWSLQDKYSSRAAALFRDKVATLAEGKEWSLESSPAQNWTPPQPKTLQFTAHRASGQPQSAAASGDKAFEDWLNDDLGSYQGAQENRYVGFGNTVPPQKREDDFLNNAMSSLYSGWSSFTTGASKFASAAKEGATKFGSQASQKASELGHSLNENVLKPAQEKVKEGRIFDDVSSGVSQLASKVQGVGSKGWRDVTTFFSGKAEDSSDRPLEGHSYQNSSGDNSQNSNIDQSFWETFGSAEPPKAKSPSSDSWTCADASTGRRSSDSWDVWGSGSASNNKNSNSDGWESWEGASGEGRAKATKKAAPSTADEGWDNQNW
UniProt Q9EQJ9: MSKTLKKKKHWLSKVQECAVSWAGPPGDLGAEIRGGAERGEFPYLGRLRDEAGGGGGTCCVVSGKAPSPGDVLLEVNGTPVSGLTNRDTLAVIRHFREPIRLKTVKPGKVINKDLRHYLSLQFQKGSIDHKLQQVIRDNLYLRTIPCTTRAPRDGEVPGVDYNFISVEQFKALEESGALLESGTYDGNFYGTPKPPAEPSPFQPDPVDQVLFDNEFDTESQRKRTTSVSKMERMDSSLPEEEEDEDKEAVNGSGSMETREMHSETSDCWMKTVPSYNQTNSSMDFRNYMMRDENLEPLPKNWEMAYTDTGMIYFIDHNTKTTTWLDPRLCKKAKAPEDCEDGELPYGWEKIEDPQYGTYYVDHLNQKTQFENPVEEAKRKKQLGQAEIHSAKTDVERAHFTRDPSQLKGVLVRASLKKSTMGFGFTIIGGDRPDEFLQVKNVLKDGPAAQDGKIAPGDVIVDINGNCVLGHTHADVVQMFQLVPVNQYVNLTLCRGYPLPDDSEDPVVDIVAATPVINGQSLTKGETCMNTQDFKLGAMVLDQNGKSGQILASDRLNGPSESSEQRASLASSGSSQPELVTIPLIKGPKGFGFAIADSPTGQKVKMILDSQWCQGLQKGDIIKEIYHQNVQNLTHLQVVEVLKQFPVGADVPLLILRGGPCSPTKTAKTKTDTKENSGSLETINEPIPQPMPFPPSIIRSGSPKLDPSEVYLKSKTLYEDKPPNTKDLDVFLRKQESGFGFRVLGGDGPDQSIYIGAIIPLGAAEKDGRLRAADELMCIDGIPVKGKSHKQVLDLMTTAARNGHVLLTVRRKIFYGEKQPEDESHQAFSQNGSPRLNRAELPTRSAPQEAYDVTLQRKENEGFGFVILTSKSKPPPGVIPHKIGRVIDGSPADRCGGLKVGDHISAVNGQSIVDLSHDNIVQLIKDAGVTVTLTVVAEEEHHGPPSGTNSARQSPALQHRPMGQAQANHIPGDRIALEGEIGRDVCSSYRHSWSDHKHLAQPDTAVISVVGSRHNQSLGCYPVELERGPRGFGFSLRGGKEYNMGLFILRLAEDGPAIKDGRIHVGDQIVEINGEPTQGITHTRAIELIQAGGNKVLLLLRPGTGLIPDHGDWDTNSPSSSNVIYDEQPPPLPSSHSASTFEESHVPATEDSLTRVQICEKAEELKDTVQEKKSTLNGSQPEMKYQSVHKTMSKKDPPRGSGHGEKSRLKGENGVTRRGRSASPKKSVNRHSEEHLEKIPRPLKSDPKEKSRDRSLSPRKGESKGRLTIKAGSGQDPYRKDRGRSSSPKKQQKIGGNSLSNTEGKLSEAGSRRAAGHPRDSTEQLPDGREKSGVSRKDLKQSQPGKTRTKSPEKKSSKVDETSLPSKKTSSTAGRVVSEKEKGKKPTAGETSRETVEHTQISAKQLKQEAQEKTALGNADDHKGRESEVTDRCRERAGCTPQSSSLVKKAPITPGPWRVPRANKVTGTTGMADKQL
UniProt Q9ER39: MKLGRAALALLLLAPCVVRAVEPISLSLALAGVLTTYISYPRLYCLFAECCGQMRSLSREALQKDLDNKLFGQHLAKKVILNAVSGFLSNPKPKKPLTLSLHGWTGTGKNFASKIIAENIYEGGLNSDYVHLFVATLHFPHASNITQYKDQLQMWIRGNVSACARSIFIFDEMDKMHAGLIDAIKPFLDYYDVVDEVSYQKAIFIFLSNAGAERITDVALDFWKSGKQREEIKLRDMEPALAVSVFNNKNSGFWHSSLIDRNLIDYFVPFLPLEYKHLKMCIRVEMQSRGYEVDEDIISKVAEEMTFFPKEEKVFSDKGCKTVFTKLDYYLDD

What follows are targets tested with CN[C@@H]1C[C@H]2O[C@@](C)([C@@H]1OC)n1c3ccccc3c3c4c(c5c6ccccc6n2c5c31)C(=O)NC4 [staurosporine] (assay: log2 fold change of pooled soluble protein (PISA), ligand vs vehicle (log2 ratio); higher = more thermally stabilized). Conditions: ligand concentration: 20 uM; assay format: PISA pool 52.9/55.5/58.6 C.

| Target | log2 fold change of pooled soluble protein |
| --- | --- |
| UniProt Q9DCC7 | -0.0816 |
| UniProt Q9JM13 | 0.0652 |
| UniProt Q9QX47 | 0.0854 |
| UniProt Q9ERG2 | 0.0539 |
| UniProt Q9JJF9 | -0.0706 |
| UniProt Q9JL56 | 0.0337 |
| UniProt Q9EQH3 | -0.0467 |
| UniProt Q9JJ48 | -0.389 |
| UniProt Q9ER73 | -0.0667 |
| UniProt Q9DCJ9 | 0.00978 |
| UniProt Q9JHE7 | -0.0816 |
| UniProt Q9DCN2 | -0.0676 |
| UniProt Q9JJS6 | -0.108 |
| UniProt Q9JKD3 | -0.314 |
| UniProt Q9EQH2 | 0.108 |
| UniProt Q9JHI5 | -0.0229 |
| UniProt Q9JM62 | -0.121 |
| UniProt Q9DCV4 | -0.00596 |
| UniProt Q9ERB0 | -0.0637 |

| Target | log2 fold change of pooled soluble protein |
| --- | --- |
| UniProt Q9JHU4 | -0.103 |
| UniProt Q9JL35 | 0.106 |
| UniProt Q9EP96 | 0.102 |
| UniProt Q9ESE1 | -0.0453 |
| UniProt Q9ESZ8 | 0.0128 |
| UniProt Q9QUM9 | -0.0292 |
| UniProt Q9EP71 | -0.139 |
| UniProt Q9DCE9 | -0.0946 |
| UniProt Q9QY36 | 0.274 |
| UniProt Q9JKP7 | -0.0045 |
| UniProt Q9JLZ3 | -0.0777 |
| UniProt Q9EPJ9 | 0.133 |
| UniProt Q9JKW0 | -0.159 |
| UniProt Q9JLQ2 | 0.414 |
| UniProt Q9EQJ9 | 0.0781 |
| UniProt Q9EPB4 | 0.707 |
| UniProt Q9ER39 | 0.202 |
| UniProt Q9QYG0 | -0.00616 |

Two neighbouring entries already listed:

| Target | log2 fold change of pooled soluble protein |
| --- | --- |
| UniProt Q9JLZ3 | -0.0777 |
| UniProt Q9EPJ9 | 0.133 |
